From US20150352040A1 (priority 2010, published 2015)

Test system: human patients
Assay: Efficacy of topical opioid analgesic formulations in human patients (Example 6)
Type: in vivo
Source text: The efficacy of topical opioid analgesic formulations was studied in human patients.

In the case of CN1CC[C@]23c4c5ccc(O)c4O[C@H]2[C@@H](O)C=C[C@H]3[C@H]1C5.O=S(=O)(O)O [morphine sulfate], the “duration of pain reduction” value (Patient G, 3 mg topical in Pass-gel to the nuchal region) is reported as “several hours”, the “duration of pain reduction” value (Patient K, topical 2.5 mg to the nuchal region) is reported as “several hours” and the “duration of pain reduction” value (Patient L, topical 2.5 mg to the nuchal region) is reported as “the rest of the day”.
